The values that follow come from paper PMC7862700.

Amino acid sequences for entries named in this document (tags omitted). A change or cut given only in a name is not applied to a line headed by its entry.
UniProt P32519: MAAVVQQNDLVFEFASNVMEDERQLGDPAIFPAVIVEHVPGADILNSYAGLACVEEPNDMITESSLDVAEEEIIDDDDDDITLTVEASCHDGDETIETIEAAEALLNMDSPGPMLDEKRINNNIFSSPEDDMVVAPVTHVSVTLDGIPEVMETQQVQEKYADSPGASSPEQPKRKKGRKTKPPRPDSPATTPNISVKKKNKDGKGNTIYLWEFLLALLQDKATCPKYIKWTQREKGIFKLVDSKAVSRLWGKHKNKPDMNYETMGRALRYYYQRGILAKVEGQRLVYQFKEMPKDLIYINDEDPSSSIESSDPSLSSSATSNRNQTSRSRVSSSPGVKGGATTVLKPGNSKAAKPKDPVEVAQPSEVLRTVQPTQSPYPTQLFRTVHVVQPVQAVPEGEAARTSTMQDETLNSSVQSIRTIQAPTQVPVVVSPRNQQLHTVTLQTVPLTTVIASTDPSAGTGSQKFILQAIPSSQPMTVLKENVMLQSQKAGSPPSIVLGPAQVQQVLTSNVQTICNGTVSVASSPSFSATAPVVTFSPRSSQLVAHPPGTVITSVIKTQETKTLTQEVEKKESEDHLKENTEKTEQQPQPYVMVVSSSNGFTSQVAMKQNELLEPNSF
UniProt P50549: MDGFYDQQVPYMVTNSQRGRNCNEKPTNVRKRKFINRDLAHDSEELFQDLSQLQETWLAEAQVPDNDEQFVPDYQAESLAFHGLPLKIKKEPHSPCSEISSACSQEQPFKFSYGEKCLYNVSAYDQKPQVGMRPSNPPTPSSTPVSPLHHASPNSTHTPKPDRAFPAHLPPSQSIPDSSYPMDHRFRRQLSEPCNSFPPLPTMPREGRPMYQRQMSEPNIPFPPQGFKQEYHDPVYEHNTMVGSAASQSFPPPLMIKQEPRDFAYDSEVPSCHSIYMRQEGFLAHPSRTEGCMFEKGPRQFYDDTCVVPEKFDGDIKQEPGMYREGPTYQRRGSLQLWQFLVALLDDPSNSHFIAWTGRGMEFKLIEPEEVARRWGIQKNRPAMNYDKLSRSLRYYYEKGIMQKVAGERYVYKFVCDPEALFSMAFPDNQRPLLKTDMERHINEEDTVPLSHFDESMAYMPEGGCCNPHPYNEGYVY

This is a selection; strong and weak results do not stand in their true shares. For part of these data: At the low end of the ranking, values are background and their order means little. The list shows a part of the results. For part of these data: The exact form of the protein is not confirmed.

Test in all cases: DAPPL (digital affinity profiling via proximity ligation, sequencing)
Holding throughout (conditions): 10 mM Tris-HCl pH 7.5, 50 mM NaCl, 1 mM DTT, 4% glycerol, room temperature, 30 min; GST-TFs on glutathione beads, 16-mer random dsDNA library, 0.1% …; high values mean tight binding; double strand, one strand shown; scale: fold enrichment (6-mer frequency, TF over GST control)

In one assay the target is T1, ERG (UniProt P11308).
T1 sequence: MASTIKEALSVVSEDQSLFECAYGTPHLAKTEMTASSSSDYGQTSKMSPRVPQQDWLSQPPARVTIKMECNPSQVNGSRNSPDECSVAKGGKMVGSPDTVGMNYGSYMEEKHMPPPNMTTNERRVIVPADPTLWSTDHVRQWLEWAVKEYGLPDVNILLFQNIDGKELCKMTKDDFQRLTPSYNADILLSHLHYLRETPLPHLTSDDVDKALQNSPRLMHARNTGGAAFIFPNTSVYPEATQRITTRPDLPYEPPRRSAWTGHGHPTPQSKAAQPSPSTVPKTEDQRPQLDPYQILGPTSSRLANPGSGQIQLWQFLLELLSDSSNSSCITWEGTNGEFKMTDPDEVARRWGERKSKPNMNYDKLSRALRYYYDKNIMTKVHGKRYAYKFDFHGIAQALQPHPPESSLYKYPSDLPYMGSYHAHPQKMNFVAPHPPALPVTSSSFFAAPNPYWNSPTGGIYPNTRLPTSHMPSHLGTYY

The next assay concerns the target ELF1 (UniProt P32519).
The target of another assay is T2, ELK4 (UniProt P28324-2).
T2 sequence: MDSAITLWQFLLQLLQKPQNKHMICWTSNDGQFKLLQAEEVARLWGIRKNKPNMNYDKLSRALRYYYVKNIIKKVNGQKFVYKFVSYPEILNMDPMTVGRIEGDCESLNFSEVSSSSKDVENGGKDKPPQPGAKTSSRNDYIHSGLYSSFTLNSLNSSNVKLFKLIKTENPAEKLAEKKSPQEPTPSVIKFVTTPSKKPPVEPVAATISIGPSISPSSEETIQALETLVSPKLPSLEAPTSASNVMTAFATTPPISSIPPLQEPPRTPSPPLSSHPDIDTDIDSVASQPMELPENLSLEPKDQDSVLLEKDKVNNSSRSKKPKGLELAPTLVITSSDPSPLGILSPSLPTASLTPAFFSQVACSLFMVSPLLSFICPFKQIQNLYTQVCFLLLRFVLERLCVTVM

Another assay has as its target T3, ETV4 (UniProt P43268).
T3 sequence: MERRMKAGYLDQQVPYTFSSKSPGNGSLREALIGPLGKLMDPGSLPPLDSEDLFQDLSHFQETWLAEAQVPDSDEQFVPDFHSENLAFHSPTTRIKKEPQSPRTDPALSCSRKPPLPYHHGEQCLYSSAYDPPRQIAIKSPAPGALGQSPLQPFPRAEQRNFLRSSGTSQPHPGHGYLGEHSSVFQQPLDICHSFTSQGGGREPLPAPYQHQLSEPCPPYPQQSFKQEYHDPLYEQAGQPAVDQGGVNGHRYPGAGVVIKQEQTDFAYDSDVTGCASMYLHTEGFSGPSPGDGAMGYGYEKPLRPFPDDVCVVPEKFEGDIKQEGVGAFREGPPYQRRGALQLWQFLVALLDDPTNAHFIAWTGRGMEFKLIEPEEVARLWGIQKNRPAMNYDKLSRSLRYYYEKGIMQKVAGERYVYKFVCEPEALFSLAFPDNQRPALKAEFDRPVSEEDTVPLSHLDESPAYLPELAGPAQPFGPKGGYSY

The target in a further assay is ETV1 (UniProt P50549).
Another assay has as its target T4, ERF (UniProt P50548).
T4 sequence: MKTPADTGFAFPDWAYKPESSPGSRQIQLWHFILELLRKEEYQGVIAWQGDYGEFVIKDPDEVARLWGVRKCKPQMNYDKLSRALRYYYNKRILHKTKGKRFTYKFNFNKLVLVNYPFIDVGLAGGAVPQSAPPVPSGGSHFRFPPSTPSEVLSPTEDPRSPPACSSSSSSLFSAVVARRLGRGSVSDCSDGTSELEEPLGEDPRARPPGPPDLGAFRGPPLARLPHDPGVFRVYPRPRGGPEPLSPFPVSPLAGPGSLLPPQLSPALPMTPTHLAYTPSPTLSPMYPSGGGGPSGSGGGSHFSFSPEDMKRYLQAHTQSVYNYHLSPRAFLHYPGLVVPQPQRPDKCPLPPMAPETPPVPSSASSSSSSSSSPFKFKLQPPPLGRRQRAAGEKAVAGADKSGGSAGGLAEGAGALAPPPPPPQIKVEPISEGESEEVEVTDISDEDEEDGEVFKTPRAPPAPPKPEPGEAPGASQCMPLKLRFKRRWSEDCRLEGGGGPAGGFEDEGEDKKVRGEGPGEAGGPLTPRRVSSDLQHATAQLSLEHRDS

Regarding ATCGGT, the binding signal with ERG was 0.696; with ELF1 it was 0.737; in the assay with ELK4, 0.776; with ETV4 it was 0.732; in the assay with ETV1, 0.638; with ERF, 0.731.

As for GGGCCC, the binding signal with ERG is 0.864; with ELF1, 0.791; with ELK4, 0.883; in the assay with ETV4 it was 0.742; in the assay with ETV1, 0.816; with ERF, 0.675.

For AGGCCA, the binding signal came out at 0.638 with ERG; 0.669 with ELF1; 0.669 with ELK4; 0.648 with ETV4; 0.692 with ETV1; 0.646 in the assay with ERF.

Take GCAGTT: the binding signal came out at 0.813 with ERG; 0.797 with ELF1; 0.815 with ELK4; 0.868 with ETV4; 0.786 in the assay with ETV1; 0.844 in the assay with ERF.

As for TAGAGC, the binding signal was found to be 0.711 with ERG; 0.783 with ELF1; 0.783 in the assay with ELK4; 0.795 with ETV4; 0.755 with ETV1; 0.838 in the assay with ERF.

Turning to AGCGTG, the binding signal with ERG is 0.391; with ELF1, 0.361; with ELK4, 0.456; with ETV4, 0.381; in the assay with ETV1, 0.4; in the assay with ERF, 0.38.

For the sequence AGTCGT, the binding signal with ERG is 0.388; with ELF1, 0.41; with ELK4 it was 0.341; with ETV4, 0.377; in the assay with ETV1 it was 0.362; with ERF it was 0.378.

Take GAGCGA: the binding signal with ERG was 0.639; in the assay with ELF1 it was 0.657; in the assay with ELK4, 0.631; with ETV4, 0.612; with ETV1 it was 0.655; with ERF it was 0.673.

GCTGGG: the binding signal with ERG was found to be 0.759; with ELF1, 0.856; with ELK4, 0.911; with ETV4, 0.852; with ETV1 it was 0.726; with ERF it was 0.802.

On to GACGTA, for which the binding signal in the assay with ERG came to 0.727; with ELF1, 0.715; with ELK4 it was 0.786; with ETV4, 0.666; in the assay with ETV1 it was 0.742; with ERF, 0.7.

Regarding GGCGTA, the binding signal in the assay with ERG worked out at 0.707; in the assay with ELF1, 0.703; with ELK4, 0.675; with ETV4, 0.678; in the assay with ETV1, 0.68; with ERF, 0.66.

Take CCGCGA: the binding signal is 0.834 with ERG; 0.77 with ELF1; 0.78 with ELK4; 0.798 with ETV4; 0.775 in the assay with ETV1; 0.748 in the assay with ERF.

On to TGAGCA, for which the binding signal was determined as 0.919 in the assay with ERG; 0.827 with ELF1; 0.824 in the assay with ELK4; 0.833 with ETV4; 0.805 in the assay with ETV1; 0.858 with ERF.

In the case of GACGCC, the binding signal came to 0.801 with ERG; 0.946 in the assay with ELF1; 0.679 in the assay with ELK4; 0.931 with ETV4; 0.713 with ETV1; 0.895 with ERF.

For the sequence GAGGGG, the binding signal with ERG was 0.56; in the assay with ELF1 it was 0.505; in the assay with ELK4 it was 0.562; with ETV4 it was 0.494; with ETV1, 0.517; with ERF, 0.598.

GGAGCA: the binding signal stood at 0.498 with ERG; 0.473 with ELF1; 0.446 in the assay with ELK4; 0.461 with ETV4; 0.482 with ETV1; 0.492 with ERF.

With GGCGAA, the binding signal with ERG is 0.721; with ELF1 it was 0.695; in the assay with ELK4, 0.699; with ETV4 it was 0.696; with ETV1 it was 0.682; with ERF, 0.686.

Regarding CGTGAA, the binding signal in the assay with ERG is 0.443; with ELF1, 0.462; in the assay with ELK4 it was 0.432; with ETV4, 0.412; with ETV1, 0.448; with ERF, 0.453.

As to AGCCAT, the binding signal was 0.852 in the assay with ERG; 0.914 in the assay with ELF1; 0.971 with ELK4; 0.817 in the assay with ETV4; 0.896 in the assay with ETV1; 0.867 with ERF.

In the case of CGTGGC, the binding signal was 0.867 in the assay with ERG; 0.897 with ELF1; 0.954 with ELK4; 0.86 in the assay with ETV4; 0.84 with ETV1; 0.846 with ERF.

For GGGCGT, the binding signal with ERG came out at 0.504; in the assay with ELF1, 0.509; with ELK4, 0.499; with ETV4 it was 0.521; in the assay with ETV1 it was 0.528; in the assay with ERF, 0.447.

As to GTCGCG, the binding signal with ERG was found to be 0.701; with ELF1, 0.671; in the assay with ELK4 it was 0.616; with ETV4, 0.578; with ETV1, 0.694; in the assay with ERF, 0.632.

As to CAAGGC, the binding signal with ERG turned out to be 0.898; in the assay with ELF1, 0.873; with ELK4 it was 0.85; in the assay with ETV4, 0.831; with ETV1 it was 0.82; with ERF it was 0.935.

Consider GCGGGT, for which the binding signal was found to be 0.576 with ERG; 0.662 with ELF1; 0.602 with ELK4; 0.571 with ETV4; 0.604 with ETV1; 0.595 in the assay with ERF.

CAGTCA: the binding signal in the assay with ERG stood at 0.493; with ELF1 it was 0.499; in the assay with ELK4, 0.463; in the assay with ETV4 it was 0.472; in the assay with ETV1, 0.542; in the assay with ERF, 0.561.

For the sequence AGGACT, the binding signal with ERG was determined as 0.888; with ELF1 it was 1; in the assay with ELK4, 0.951; with ETV4 it was 0.999; in the assay with ETV1 it was 0.86; with ERF, 0.861.

For TCAGTG, the binding signal with ERG is 0.727; with ELF1, 0.806; with ELK4, 0.882; with ETV4 it was 0.823; with ETV1, 0.786; with ERF, 0.94.

For AGGTGG, the binding signal with ERG was found to be 0.685; in the assay with ELF1 it was 0.655; with ELK4, 0.642; in the assay with ETV4 it was 0.609; with ETV1, 0.573; with ERF it was 0.633.

In the case of CAAGTG, the binding signal with ERG was found to be 0.725; with ELF1, 0.75; in the assay with ELK4 it was 0.72; with ETV4 it was 0.688; with ETV1, 0.714; with ERF, 0.738.

On to ATCCAG, for which the binding signal was found to be 0.853 with ERG; 0.843 with ELF1; 0.927 in the assay with ELK4; 0.832 with ETV4; 0.866 with ETV1; 0.895 with ERF.
